Reference: article PMC10706732

Columns and labels:
[1] = biological target: T1, Murine ceruloplasmin (murine) (UniProt Q61147); experiment: native gel or EMSA; disc electrophoresis in polyacrylamide gel without detergents; LF or LF/8OA (1-8 ug) added to purified CP (1 ug/lane); CP band stained with o-dianisidine; both purified
T1 sequence: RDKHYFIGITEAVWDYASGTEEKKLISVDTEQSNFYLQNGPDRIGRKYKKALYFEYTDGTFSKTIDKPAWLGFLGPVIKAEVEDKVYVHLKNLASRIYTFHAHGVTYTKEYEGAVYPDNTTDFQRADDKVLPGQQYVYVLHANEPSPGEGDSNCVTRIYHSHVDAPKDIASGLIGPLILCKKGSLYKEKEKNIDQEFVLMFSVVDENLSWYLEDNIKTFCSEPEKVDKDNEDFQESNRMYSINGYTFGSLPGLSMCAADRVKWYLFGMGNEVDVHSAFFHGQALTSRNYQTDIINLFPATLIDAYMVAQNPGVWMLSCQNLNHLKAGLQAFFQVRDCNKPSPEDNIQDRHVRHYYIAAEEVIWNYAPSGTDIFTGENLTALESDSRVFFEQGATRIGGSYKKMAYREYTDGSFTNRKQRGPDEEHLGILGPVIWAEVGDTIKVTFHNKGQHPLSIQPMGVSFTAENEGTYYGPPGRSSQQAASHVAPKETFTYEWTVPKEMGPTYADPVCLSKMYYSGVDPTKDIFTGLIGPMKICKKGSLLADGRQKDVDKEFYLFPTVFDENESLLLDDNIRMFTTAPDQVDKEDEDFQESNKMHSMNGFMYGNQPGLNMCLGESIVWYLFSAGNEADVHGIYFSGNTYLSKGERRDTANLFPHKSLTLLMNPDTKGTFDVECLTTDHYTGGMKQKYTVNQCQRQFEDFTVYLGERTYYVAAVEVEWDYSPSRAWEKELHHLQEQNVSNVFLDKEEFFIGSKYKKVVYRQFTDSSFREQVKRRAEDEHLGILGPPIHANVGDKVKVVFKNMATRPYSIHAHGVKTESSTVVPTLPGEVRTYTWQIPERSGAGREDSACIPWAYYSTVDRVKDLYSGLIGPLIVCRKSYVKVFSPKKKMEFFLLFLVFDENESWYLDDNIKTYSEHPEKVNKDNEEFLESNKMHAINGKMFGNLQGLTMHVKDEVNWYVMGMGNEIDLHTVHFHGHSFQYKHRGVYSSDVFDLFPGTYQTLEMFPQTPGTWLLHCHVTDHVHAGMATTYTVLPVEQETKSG

[2] = biological target: T2, Human ceruloplasmin (human) (UniProt P00450); experiment: as above
T2 sequence: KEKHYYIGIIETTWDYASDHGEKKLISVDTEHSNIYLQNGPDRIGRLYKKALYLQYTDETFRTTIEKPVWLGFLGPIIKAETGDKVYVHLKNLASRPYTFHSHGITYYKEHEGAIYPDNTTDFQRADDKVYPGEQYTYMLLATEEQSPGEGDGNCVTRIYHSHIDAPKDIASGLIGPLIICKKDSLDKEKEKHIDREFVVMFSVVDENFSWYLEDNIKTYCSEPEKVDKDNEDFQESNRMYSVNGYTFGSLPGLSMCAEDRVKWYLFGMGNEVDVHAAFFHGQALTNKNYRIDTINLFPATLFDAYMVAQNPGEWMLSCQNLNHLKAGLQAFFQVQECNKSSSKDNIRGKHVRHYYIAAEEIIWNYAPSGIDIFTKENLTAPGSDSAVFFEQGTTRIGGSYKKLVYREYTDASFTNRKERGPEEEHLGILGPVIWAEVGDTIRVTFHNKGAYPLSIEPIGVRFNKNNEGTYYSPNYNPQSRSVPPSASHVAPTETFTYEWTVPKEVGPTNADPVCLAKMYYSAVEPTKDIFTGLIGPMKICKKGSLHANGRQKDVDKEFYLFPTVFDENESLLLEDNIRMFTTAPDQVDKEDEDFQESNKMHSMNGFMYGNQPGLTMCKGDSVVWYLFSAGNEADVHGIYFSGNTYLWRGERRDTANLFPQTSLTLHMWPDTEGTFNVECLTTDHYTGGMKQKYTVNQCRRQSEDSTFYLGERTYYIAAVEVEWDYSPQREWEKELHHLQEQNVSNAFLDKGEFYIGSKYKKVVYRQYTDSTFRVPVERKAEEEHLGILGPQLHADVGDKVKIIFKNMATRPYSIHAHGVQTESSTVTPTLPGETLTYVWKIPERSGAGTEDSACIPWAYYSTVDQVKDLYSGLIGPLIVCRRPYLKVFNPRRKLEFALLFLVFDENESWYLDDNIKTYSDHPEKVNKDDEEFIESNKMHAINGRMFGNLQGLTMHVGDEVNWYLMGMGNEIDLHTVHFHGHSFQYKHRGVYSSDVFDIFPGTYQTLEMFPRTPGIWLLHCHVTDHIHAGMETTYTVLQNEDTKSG

[3] = biological target: T1, Murine ceruloplasmin (murine); experiment: native gel or EMSA; PAGE without detergents; LF or LF/8OA added to human or murine serum instead of purified CP; CP band stained with o-dianisidine; only the binder purified
[4] = biological target: T2, Human ceruloplasmin (human); experiment: as above

binding [1]: binds
binding [2]: binds
binding [3]: binds
binding [4]: binds
Substance: Recombinant human lactoferrin

These are yes or no findings as the source states them, for the method shown. A result given as binding can be weak or reduced; the word gives no strength.
